Here are results for 1 substance from patent US11324832B2 (Endosome Therapeutics, Inc., priority 2015, dated 2022).

This data set is described as follows: general procedure: Fmoc solid-phase peptide synthesis; NovaSyn TG R resin; HCTU or HBTU with DIPEA; PyBOP/DIPEA. To be noted: whole synthesis, scale 100 mg resin portion of 0.18 mmol synthesis.

The substance VTHRLAGLLSRSGGVVKDNFVPTNVGSEAF-NH2 registered an isolated mass of 7 mg.
